Data from patent US20250171543A1 (TAIZHOU ENZE MEDICAL CENTER GROUP, published 2025).
Results are given in words; binding and its absence hold for the method and conditions named. Some binding calls cover weakened binding; strength is not graded here.

Biological target: HLA-G molecule (human) (UniProt P17693)
Assay: immunoblot of lysates of gastric cancer tissues of 62 patients

B1: monoclonal antibody YWHG-1 against HLA-G molecule (antibody, V domains shown)
VH: QLQESGTVLVRPGASVKLSCKASGYIFTSYWINWVKQRPGQGLEWIGNIYPSDSYTNFNQKFEDKATLTVDTSSSTAYMQFSSPTSEDSAVYYCTRFGYPFDYWGQGTTLTVSS
VL: DIVITQDELSLTVSLGDQASISCRTSQSFVHSNGNIYLEWFLQKPGQSPKLLIYKVSSRFSGVPDRFSGSGSGTDFTLKISRVEAEDLGIYYCFQGSHVPPTFGGGTKLEIK
notes: FITC-labeled in the flow cytometry assay; also called hybridoma CCTCC NO: 202120
In the case of B1, the binding is reported as “binds”.
